Results from PubChem BioAssay AID485314 (National Center for Advancing Translational Sciences (NCATS), 2010).
The whole screen tested about 340,000 compounds, of which about 4,500 (1.3%) were called active. Inconclusive results, whose numbers are uncertain, are shown with a selection of clear calls. The call rests on the fitted dose curve; in most records, active means well fitted inhibition curve with a large enough effect; inconclusive means small, poorly fitted or top-dose-only effect, or another doubt; inactive means no such curve, though single readings can be large or run the other way. Potencies of inconclusive entries are doubtful fits and often do not repeat.

biological target: DNA polymerase beta (Homo sapiens) (UniProt P06746); assay: qHTS Assay for Inhibitors of DNA Polymerase Beta; conditions: Pol beta primer extension/strand displacement, fluorescence kinetic; activity change, negative = inhibition: at 114 µM (top of the series)
Summary of the method: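 Homogeneous kinetic assay of primer extension and strand displacement by 10 nM Pol beta, preincubated 15 min at room temperature with compound before 50 nM substrate (final) was added. Read at 0 and 10 min; four-parameter Hill fit.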
On the % scale 0 is the no-effect control and ±100 the full control effect; potency means the concentration at half of the fitted maximal effect.

Activity change, negative = inhibition, inconclusive:
COc1cccc(/C=N/NC(=O)c2c(C)nc3ccc(Cl)cn23)c1OC -32% [inhibitor]

Activity change, negative = inhibition, inactive:
COc1ccc(-c2cc(C(=O)Oc3ccc(Br)cc3)c3ccccc3n2)cc1 25.3%
O=c1[nH]c(/C=C/c2ccc([N+](=O)[O-])cc2)c([N+](=O)[O-])c(=O)[nH]1 -3%
Cc1nc2nc(CNC(=O)OC(C)(C)C)nn2c(C)c1CCC(=O)NCc1ccccc1Cl 3%
Cc1cccc(OCC(=O)NC(Cc2ccccc2)C(=O)O)c1 (centres undefined) 60.5%
COc1ccccc1NC(=O)C(=O)c1cc(C)n(-c2cc(C)cc(C)c2)c1C 6.17%
CCOc1cccc(-c2nc3ccccc3c(=O)o2)c1 29.9%
COc1ccc(S(=O)(=O)Nc2ccccc2C(=O)NCc2ccco2)cc1 -13.9%
Cc1cccn2c(=O)cc(COc3ccc(NC(=O)COc4ccc(F)cc4)cc3)nc12 -0.828%
COc1ccc(/C(=N/OC(C)=O)c2nccc3cc(OC)c(OC)cc23)cc1OC 6.22%
CC(C)(C)c1ccc(C(=O)NC2=NC(c3cccc(F)c3)CC(=O)N2)cc1 (centres undefined) 1.47%
Cc1ccc(NCC(=O)c2ccccc2)cc1Cl -0.42%
COc1ccccc1NC(=O)Cc1nnc(SCC(=O)Nc2ccccc2F)n1C 0.381%
Cc1c(NC(=O)Nc2cccc(C(F)(F)F)c2)sc2nc3n(c(=O)c12)CCC(C)CC3 (centres undefined) 31.7%
Cc1cc(C)nc(SCSc2nc(C)cc(C)n2)n1 1.26%
O=C(Nc1nc2c(Cl)cccc2s1)c1ccc([N+](=O)[O-])o1 3.78%
Cc1ccc(Nc2nc(N3CCN(C)CC3)nc(N)c2[N+](=O)[O-])cc1C 15.3%
CCCCc1nn2c(=O)cc(COC(=O)c3cccc(NC(=O)c4cccs4)c3)nc2s1 -11%

Potency, inconclusive:
O=C(N=Nc1c(O)[nH]c2ccccc12)c1cccs1 15.8 µM [inhibitor, full curve]
O=C(NNS(=O)(=O)c1ccccc1)C1CC(c2cccnc2)=NO1 (centres undefined) 0.282 µM [inhibitor, full curve, poor fit]
COc1ccc(-c2cc3nc4c(c(=O)n3[nH]2)CCC4)cc1 44.7 µM [inhibitor, partial curve, poor fit]
CC(=O)Oc1cccc(/C=C2\Sc3ccccc3C2=O)c1 44.7 µM [inhibitor, partial curve, poor fit]
Cn1c(=O)c2c(nc(CN3CCN(CCO)CC3)n2Cc2ccccc2Cl)n(C)c1=O 89.1 µM [inhibitor, single point]
CCS(=O)(=O)c1ccc2oc(Nc3cc(C)cc(C)c3)nc2c1 1.12 µM [inhibitor, full curve, poor fit]
N=C1/C(=C/c2cccn2Cc2ccc(Cl)cc2)C(=O)N=C2SC=CN12 22.4 µM [inhibitor, full curve]
Cc1ccc(-c2nc3ccccc3s2)cc1NC(=S)NC(=O)/C=C/c1ccco1 56.2 µM [inhibitor, partial curve]
NS(=O)(=O)c1ccc(NC(=O)COC(=O)Cc2ccc(Cl)cc2)cc1 35.5 µM [inhibitor, single point]
CC(C)c1ccc(NNC(=O)C2CCC2)cc1 39.8 µM [inhibitor, single point]
CCOC(=O)c1sc(N2C(=O)C(O)=C(C(=O)c3ccco3)C2c2ccc(C)o2)nc1C (centres undefined) 50.1 µM [inhibitor, partial curve]
COC(=O)c1cc2c(=O)c3ccccc3oc2nc1/C=C/N(C)C 79.4 µM [inhibitor, single point]
CC(C)NC(=O)C1CCN(C2CCN(CC3CC=CCC3)CC2)CC1 (centres undefined) 89.1 µM [inhibitor, single point]
CC(=O)OC(COc1ccccc1)Cn1cnc2ccccc21 (centres undefined) 89.1 µM [inhibitor, single point]
O=C(CCS(=O)(=O)c1ccccc1)N(Cc1cccnc1)c1nc2c(F)cccc2s1 89.1 µM [inhibitor, single point]
COc1ccc(-n2nc3c(N4CCC(C(=O)NCc5ccccc5)CC4)nnc(C)c3c2C)cc1 25.1 µM [inhibitor, full curve]
Cc1ccnc(SCc2cc(=O)c(OC(=O)c3ccco3)co2)n1 1.26 µM [inhibitor, full curve]
Cc1cccc(/C=C/C(=O)c2cc(Br)ccc(=O)c2O)c1 14.1 µM [inhibitor, full curve]
C/C(=N\NC(=O)c1ccn(C)n1)c1ccc(NC(=O)c2cccc(F)c2)cc1 0.631 µM [inhibitor, full curve, poor fit]
O=C1C2CC=CCC2C(=O)N1Cc1nnc(-c2ccccc2Br)o1 (centres undefined) 50.1 µM [inhibitor, partial curve, poor fit]
CC(=O)c1ccc(NC(=O)CSc2nnc(-c3ccncc3)n2-c2ccccc2)cc1 79.4 µM [inhibitor, partial curve, poor fit]
Cc1ccc(Cl)cc1-c1ccc(/C=N/n2cnnc2)o1 50.1 µM [inhibitor, partial curve]

Potency, active:
CC(=O)COc1ccc2c(c1C)O/C(=C\c1ccco1)C2=O 44.7 µM
O=C(NCc1ccco1)c1ccc(-c2csnn2)cc1 10 µM
CC(=C/c1ccccc1)/C=N/NC(=O)c1ccccn1 63.1 µM
O=C1NC(=O)/C(=C\c2ccc(Br)o2)S1 17.8 µM
CCOc1ccc(-c2nnc(SCC(=O)Nc3ccc4c(c3)c3ccccc3n4CC)n2N)cc1 39.8 µM
Fc1ccc2[nH]c3c(N4CCc5ccccc5C4)ncnc3c2c1 14.1 µM
COc1cccc(NC(=S)NC(=O)/C=C/c2ccco2)c1 39.8 µM
S=c1[nH]nc(-c2cc(-c3ccccc3)n[nH]2)n1/N=C/c1ccc(Cl)c(Cl)c1 22.4 µM
O=C(Cn1cnc2scc(-c3cccc([N+](=O)[O-])c3)c2c1=O)NCc1ccco1 10 µM

Quoted at random: three entries already listed, in no set order.
Potency, active:
CCOc1ccc(-c2nnc(SCC(=O)Nc3ccc4c(c3)c3ccccc3n4CC)n2N)cc1 39.8 µM
Fc1ccc2[nH]c3c(N4CCc5ccccc5C4)ncnc3c2c1 14.1 µM
O=C1NC(=O)/C(=C\c2ccc(Br)o2)S1 17.8 µM
